Results are given in words; binding and its absence hold for the method and conditions named. Binding seen in cells or lysates may run through a third protein. Here binding means that the protein was enriched with, or labelled near, the bait; the list need not be complete. For some of these results: A no says only that the protein was not detected with the bait. Blank lines part the entries; values can stand above or below the molecule they belong to.
Legend:
Test in all cases: affinity purification with mass spectrometry
[1] = target: T1, EXOSC10 (human (endogenous in HEK293XT)) (UniProt Q01780)
T1 sequence: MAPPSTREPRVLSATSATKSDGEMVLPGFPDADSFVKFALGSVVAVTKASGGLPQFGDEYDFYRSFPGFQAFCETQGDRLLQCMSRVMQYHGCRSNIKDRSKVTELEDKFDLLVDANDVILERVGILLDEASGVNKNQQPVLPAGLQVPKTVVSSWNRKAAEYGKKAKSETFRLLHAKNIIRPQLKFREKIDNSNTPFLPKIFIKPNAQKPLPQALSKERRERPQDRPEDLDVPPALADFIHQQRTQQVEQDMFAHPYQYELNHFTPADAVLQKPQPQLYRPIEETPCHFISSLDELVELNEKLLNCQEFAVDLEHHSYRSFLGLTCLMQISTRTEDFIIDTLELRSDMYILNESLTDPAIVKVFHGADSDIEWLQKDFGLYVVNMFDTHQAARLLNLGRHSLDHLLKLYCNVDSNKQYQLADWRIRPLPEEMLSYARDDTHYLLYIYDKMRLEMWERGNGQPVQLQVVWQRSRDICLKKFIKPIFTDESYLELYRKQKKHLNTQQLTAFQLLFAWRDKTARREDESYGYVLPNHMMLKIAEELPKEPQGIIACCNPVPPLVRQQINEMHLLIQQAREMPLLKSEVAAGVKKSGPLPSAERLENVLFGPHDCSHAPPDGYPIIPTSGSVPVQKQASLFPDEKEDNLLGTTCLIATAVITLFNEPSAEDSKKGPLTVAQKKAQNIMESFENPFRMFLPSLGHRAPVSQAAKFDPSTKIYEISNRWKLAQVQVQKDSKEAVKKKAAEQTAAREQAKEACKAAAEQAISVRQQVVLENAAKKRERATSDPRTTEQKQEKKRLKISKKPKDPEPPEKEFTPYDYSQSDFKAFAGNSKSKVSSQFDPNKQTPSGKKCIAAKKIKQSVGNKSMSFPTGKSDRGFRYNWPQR

Amino acid sequences for entries named in this document (tags omitted).
UniProt P16892: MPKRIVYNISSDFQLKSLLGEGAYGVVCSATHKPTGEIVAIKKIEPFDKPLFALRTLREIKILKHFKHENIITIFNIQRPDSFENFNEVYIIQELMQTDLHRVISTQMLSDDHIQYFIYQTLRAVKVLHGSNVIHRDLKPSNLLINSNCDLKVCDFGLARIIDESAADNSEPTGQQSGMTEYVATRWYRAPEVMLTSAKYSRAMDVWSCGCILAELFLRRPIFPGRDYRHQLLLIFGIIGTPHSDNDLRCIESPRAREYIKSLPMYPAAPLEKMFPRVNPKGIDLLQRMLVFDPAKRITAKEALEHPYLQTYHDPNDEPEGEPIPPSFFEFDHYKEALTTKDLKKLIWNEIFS
UniProt Q14152: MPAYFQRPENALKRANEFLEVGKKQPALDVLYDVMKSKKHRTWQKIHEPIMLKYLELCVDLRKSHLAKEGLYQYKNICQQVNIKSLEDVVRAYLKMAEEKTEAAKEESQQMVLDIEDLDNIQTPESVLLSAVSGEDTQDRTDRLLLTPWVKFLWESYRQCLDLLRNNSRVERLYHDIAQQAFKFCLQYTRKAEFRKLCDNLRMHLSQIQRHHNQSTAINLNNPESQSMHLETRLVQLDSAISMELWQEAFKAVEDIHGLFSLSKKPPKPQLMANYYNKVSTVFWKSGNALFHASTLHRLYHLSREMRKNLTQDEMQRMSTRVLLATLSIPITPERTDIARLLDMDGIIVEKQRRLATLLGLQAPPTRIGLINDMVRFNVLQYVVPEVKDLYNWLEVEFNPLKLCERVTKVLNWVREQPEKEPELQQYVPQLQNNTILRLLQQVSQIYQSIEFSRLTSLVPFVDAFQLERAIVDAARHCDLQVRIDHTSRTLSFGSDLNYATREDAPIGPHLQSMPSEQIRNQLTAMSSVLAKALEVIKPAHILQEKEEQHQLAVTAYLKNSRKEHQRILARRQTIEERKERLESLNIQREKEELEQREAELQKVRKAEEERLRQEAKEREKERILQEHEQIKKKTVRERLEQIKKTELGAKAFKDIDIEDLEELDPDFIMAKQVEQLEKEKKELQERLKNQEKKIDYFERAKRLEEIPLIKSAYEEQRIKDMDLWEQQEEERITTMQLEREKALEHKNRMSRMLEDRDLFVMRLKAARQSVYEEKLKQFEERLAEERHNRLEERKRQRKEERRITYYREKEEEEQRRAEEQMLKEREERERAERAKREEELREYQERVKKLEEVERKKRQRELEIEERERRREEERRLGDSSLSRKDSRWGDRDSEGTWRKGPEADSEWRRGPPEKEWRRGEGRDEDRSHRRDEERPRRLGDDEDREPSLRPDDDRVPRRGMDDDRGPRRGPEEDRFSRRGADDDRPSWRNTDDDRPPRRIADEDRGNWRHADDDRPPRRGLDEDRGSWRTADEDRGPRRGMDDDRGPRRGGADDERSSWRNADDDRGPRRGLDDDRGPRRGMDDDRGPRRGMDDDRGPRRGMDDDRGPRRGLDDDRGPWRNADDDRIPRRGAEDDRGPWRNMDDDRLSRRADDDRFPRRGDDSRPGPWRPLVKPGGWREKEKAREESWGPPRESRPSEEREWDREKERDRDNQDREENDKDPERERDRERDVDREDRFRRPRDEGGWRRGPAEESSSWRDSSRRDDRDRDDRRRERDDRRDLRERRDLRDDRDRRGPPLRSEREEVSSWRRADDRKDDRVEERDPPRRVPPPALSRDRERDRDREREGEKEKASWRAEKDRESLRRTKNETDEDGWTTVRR
UniProt P06634: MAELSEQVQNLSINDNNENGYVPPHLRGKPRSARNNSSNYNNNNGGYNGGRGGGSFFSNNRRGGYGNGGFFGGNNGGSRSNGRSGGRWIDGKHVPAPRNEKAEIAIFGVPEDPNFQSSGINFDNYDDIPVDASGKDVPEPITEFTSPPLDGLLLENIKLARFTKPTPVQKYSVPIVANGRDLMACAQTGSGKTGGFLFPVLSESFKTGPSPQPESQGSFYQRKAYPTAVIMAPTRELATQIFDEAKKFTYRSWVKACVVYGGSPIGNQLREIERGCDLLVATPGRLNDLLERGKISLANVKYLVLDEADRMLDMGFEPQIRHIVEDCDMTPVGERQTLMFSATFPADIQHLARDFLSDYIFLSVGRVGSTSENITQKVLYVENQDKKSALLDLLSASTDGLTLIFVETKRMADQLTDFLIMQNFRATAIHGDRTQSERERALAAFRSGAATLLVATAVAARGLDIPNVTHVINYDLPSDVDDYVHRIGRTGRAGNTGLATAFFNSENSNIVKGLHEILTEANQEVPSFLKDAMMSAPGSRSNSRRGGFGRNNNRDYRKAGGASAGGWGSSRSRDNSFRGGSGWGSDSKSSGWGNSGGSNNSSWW
UniProt Q13868: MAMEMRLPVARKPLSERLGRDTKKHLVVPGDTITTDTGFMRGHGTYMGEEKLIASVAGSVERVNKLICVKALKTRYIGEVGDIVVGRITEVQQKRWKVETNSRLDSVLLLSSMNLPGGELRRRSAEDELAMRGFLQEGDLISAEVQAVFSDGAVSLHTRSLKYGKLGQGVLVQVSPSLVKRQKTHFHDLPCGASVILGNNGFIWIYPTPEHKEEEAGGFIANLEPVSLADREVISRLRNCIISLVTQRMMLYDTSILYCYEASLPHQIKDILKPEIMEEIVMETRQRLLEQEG
UniProt P40460: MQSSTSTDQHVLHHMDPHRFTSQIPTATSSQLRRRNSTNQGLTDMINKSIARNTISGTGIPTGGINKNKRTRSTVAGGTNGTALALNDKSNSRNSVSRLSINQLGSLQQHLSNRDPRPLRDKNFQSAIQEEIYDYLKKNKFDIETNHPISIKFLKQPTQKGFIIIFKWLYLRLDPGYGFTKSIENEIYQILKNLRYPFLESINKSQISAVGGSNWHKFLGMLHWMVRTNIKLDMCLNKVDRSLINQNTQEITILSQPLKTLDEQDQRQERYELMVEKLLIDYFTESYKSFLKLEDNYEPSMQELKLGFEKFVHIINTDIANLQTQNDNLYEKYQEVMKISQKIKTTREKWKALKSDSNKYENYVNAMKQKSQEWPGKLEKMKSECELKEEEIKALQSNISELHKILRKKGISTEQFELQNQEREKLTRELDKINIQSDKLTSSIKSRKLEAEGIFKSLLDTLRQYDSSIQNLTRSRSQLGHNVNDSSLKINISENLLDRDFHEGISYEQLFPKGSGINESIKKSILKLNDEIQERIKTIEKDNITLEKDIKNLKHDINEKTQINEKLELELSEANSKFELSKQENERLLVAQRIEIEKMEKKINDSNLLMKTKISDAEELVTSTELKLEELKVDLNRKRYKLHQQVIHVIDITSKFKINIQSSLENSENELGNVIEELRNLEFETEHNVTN
UniProt Q9UBQ5: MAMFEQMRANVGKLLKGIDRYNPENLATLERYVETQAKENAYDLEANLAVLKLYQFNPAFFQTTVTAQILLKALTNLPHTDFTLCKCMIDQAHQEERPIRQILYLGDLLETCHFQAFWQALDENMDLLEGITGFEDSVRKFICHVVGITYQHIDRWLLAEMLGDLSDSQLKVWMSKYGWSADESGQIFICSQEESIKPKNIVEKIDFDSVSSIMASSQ
UniProt O00303: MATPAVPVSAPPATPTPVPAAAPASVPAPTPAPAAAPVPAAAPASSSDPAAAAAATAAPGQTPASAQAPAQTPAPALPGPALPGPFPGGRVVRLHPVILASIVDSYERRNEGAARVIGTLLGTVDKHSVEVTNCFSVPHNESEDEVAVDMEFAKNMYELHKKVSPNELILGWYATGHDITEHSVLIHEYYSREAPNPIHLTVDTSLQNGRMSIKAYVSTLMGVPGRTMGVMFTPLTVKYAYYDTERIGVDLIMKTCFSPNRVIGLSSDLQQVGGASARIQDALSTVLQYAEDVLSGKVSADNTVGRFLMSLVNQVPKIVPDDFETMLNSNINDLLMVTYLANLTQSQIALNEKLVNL
UniProt P60228: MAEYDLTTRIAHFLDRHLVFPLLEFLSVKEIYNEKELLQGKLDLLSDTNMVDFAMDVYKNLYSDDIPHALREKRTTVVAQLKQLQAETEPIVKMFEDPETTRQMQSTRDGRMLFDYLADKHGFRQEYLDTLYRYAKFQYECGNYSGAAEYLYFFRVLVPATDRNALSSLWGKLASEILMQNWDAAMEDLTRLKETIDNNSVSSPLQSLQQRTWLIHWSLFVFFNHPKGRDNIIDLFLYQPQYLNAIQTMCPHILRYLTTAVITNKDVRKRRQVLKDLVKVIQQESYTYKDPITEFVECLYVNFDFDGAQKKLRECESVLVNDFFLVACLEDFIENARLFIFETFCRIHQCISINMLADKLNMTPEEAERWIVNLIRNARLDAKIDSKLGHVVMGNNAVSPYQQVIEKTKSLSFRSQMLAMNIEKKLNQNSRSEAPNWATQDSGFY
UniProt O95639: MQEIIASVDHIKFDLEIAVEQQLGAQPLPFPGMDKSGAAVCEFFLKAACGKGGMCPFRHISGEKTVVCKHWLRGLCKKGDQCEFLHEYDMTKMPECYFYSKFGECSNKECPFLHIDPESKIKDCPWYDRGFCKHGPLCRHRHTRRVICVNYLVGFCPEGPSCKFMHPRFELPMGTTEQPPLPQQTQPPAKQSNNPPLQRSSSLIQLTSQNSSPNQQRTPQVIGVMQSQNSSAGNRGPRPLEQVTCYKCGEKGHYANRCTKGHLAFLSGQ
UniProt O75822: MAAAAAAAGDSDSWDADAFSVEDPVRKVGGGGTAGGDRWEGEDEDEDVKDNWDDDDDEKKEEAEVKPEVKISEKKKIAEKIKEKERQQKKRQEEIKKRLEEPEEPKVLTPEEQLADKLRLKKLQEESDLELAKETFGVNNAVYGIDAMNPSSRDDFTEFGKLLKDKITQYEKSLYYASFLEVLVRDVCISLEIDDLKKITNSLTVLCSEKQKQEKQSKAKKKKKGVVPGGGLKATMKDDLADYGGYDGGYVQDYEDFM
UniProt P24784: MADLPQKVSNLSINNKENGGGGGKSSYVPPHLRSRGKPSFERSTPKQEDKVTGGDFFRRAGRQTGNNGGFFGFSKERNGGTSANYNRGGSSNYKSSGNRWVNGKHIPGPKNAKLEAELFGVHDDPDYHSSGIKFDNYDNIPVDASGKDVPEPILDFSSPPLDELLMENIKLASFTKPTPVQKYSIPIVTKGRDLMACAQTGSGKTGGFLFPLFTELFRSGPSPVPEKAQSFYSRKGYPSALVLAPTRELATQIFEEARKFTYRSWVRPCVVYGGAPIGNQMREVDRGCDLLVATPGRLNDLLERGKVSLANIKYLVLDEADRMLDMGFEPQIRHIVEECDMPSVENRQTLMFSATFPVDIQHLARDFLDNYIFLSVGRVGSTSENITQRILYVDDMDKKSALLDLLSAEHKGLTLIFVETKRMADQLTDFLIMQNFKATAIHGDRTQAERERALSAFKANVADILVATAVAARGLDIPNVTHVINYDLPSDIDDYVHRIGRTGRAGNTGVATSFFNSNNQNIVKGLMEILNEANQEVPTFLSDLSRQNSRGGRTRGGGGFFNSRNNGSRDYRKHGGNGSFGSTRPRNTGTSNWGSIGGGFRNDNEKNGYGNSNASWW
UniProt Q9Y262: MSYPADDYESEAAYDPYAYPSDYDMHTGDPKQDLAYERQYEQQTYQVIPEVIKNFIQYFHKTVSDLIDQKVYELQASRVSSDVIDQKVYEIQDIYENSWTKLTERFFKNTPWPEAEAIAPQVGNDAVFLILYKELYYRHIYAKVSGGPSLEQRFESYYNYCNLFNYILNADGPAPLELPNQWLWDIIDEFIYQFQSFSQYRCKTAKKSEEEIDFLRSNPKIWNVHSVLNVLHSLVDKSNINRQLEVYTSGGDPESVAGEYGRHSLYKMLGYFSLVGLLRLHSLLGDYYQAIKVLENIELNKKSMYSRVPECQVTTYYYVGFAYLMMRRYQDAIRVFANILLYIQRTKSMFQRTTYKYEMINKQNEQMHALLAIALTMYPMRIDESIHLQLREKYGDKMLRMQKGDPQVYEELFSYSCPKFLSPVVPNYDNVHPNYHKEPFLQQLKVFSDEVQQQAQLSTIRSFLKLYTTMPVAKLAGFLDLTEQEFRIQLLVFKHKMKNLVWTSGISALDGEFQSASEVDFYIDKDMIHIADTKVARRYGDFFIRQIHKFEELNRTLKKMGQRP

[2] = target: FUS3 (Saccharomyces cerevisiae) (UniProt P16892)
[3] = target: eIF3A (human (endogenous in HEK293XT)) (UniProt Q14152)
[4] = target: T2, CSTF2 (human (endogenous in HEK293XT)) (UniProt P33240)
T2 sequence: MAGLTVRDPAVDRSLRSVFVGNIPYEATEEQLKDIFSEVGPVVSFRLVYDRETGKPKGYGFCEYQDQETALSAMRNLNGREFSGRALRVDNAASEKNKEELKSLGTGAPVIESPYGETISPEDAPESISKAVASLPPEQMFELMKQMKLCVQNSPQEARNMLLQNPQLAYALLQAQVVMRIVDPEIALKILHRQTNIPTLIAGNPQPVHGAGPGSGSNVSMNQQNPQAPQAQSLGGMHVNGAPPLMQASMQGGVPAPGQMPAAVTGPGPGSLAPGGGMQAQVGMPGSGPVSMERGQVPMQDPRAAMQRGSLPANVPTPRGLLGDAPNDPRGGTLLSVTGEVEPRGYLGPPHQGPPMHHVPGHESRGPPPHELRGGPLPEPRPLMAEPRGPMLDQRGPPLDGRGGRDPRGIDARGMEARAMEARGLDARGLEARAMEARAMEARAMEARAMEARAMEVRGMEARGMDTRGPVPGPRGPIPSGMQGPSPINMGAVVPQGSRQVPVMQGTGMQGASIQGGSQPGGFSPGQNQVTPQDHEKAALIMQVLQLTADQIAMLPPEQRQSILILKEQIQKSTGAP

[5] = target: DED1 (Saccharomyces cerevisiae) (UniProt P06634)
[6] = target: EXOSC2 (human (endogenous in HEK293XT)) (UniProt Q13868)

- binding [1]: binds
Molecule: EXOSC2 (from UniProt Q13868 1-293)

- binding [2]: no binding
Molecule: NDC80 (from UniProt P40460 1-691)

- binding [3]: binds
Molecule: eIF3K (from UniProt Q9UBQ5 1-218)

- binding [3]: binds
Molecule: eIF3F (from UniProt O00303 1-357)

- binding [3]: binds
Molecule: eIF3E (from UniProt P60228 1-445)

- binding [4]: binds
Molecule: CPSF4 (from UniProt O95639 1-269)

- binding [3]: binds
Molecule: eIF3J (from UniProt O75822 1-258)

- binding [5]: binds
Molecule: DBP1 (from UniProt P24784 1-617)

- binding [3]: binds
Molecule: eIF3L (from UniProt Q9Y262 1-564)

- binding [6]: binds
B1: EXOSC10 (protein, UniProt Q01780 1-885)
chain: T1 sequence

— doi:10.1101/2025.11.21.689547
